Test results reported in PubChem BioAssay AID485298 (National Center for Advancing Translational Sciences (NCATS), 2010).
The campaign covered roughly 320,000 compounds. About 740 (0.23%) were called active. This list was built around the results that the source calls inconclusive (neither active nor inactive); the mix of calls is not that of the screen. Calls come from the whole dose curve; as a rule, active = well fitted activation curve with a large enough effect; inconclusive = small, poorly fitted or top-dose-only effect; inactive = no such curve, though single readings can be large or run the other way. Potencies beside an inconclusive call are fits to weak or partial responses and may not hold up.
Potency is the fitted concentration of half-maximal effect.

Assay: qHTS Assay for Small Molecule Inhibitors of Mitochondrial Division or Activators of Mitochondrial Fusion; note: nearly all actives have a fitted effect of over 45% in size; for growth rescue (activation): % of control where 0% means no effect
Details: S. cerevisiae fusion-defective mutant growth rescue, CellTiterGlo 48 h; growth rescue (activation): at 46.1 µM (top of the series) unless noted
Summary of the method: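 S. cerevisiae fusion-defective temperature-sensitive mutants (e.g. fzo1-1, mgm1-5) grown 48 h at 37C in YPEG (ethanol/glycerol non-fermentable) medium with 23 nl compound per well; growth rescue read as CellTiterGlo luminescence.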
For `COc1cccc2cc(C(=O)NCCc3c[nH]c4ccccc34)c(=O)oc12`, the Potency was inconclusive: 12.6 µM [activator, partial curve].
For `O=C(Nc1ncccc1O)c1cccc(S(=O)(=O)N2CCCc3ccccc32)c1`, the Potency was inconclusive: 14.1 µM [activator, single point].
In the case of `Cc1ccc(-c2nc3cnccn3c2Nc2ccccc2)o1`, the “growth rescue (activation)” value is reported as inactive: -1.28%.
With `CCOC(=O)c1c(NC(=O)CSc2nncs2)sc(C)c1-c1ccccc1` the Potency was inconclusive: 11.2 µM [activator, partial curve].
In the case of `CC(C)COc1cccc(C(=O)N(CC(=O)Nc2ccccc2C(F)(F)F)Cc2ccco2)c1`, the “growth rescue (activation)” value is reported as inactive: 19.8%.
With `Cc1cc(C)c(OCC(=O)Nc2cc(C(=O)O)cc(C(=O)O)c2)cc1C` the Potency was inconclusive: 15.8 µM [activator, partial curve].
In the case of `O=C(Nc1ccc2ccccc2n1)c1ccccc1Cl`, the Potency is reported as inconclusive: 0.501 µM [activator, partial curve, poor fit].
In the case of `CN(C(=O)COc1ccccc1)c1nnc(C23CC4CC(CC(C4)C2)C3)s1`, the Potency is reported as inconclusive: 3.16 µM [activator, partial curve].
For `O=C(CN1CCN(c2nc(-c3ccc(F)cc3)cs2)CC1)NCc1ccc2c(c1)OCO2`, the Potency was inconclusive: 15.8 µM [activator, single point].
With `N#Cc1nc(NCC(F)F)nc(Nc2cc(F)cc(F)c2)n1` the Potency was inconclusive: 3.98 µM [activator, single point].
In the case of `O=[N+]([O-])c1cccc(-c2nc(NCc3ccccc3)c3ccccc3n2)c1`, the Potency is reported as active: 3.16 µM.
With `COc1c(S(=O)(=O)N2CCN(c3ccc(F)cc3)CC2)ccc(Cl)c1Cl` the “growth rescue (activation)” value was inactive: 0.328%.
For `COc1ccc([C@@H]2C(C#N)=C(N)S[C@@H](c3ccccc3)[C@@H]2[N+](=O)[O-])cc1`, the Potency was inconclusive: 35.5 µM [activator, single point].
In the case of `CC(C)(C)OC(=O)[C@H](Cc1ccccc1)NC(=O)c1[nH]cnc1C(=O)Nc1ccc(Cl)cc1`, the Potency is reported as inconclusive: 11.2 µM [activator, partial curve].
With `Fc1cccc(CSc2nc3ncc(Cl)cc3[nH]2)c1` the Potency was inconclusive: 5.62 µM [activator, single point].
In the case of `CC1=NN(C(=O)COc2ccccc2C)C(O)(c2ccc(Cl)cc2)C1` (centres undefined), the Potency is reported as inconclusive: 35.5 µM [activator, single point].
For `CCCCN(C)C(=O)c1cc2cc3ccc(OC)cc3nc2o1`, the “growth rescue (activation)” value was inactive: -9.09%.
In the case of `CC1(c2nnc(-c3ccc(F)cc3)o2)CC(c2ccc(F)cc2)=NO1` (centres undefined), the Potency is reported as inconclusive: 35.5 µM [activator, single point].
With `CN1CCN(C(=S)c2cn(Cc3ccccc3)c3ccccc23)CC1` the “growth rescue (activation)” value was inactive: -8.63%.
For `c1ccc2nc3c(cc2c1)CCCCC3`, the “growth rescue (activation)” value was inactive: -4.29%.
With `C=CCc1ccc(OCCOc2cccc3cccnc23)c(OC)c1` the Potency was inconclusive: 20 µM [activator, single point].
For `O=C(CSc1nnnn1-c1ccc(F)cc1)c1ccc(O)c(O)c1`, the Potency was inconclusive: 35.5 µM [activator, partial curve].
For `O=C(Nc1ccc(N2CCN(C(=O)c3ccc(Cl)cc3)CC2)cc1)c1ccc([N+](=O)[O-])o1`, the “growth rescue (activation)” value was inactive: -1.74%.
In the case of `O=S(=O)(NCCc1csc(-c2cccnc2)n1)c1ccc(Cl)s1`, the “growth rescue (activation)” value is reported as inactive: 21.6%.
For `Oc1ccc2nnc3c(Br)cnn3c2c1`, the Potency was inconclusive: 10 µM [activator, partial curve].
In the case of `Cc1cccc(C)c1N1CCN(S(=O)(=O)c2ccc(F)cc2)CC1`, the Potency is reported as inconclusive: 15.8 µM [activator, single point].
For `CC(=O)Oc1ccccc1C1=NN(C(=O)/C=C/c2ccccc2)C(c2ccccc2)C1` (centres undefined), the Potency was active: 15.8 µM.
In the case of `CC1CN/C(=C\C(=O)c2ccc(Br)cc2)C(=O)N1` (centres undefined), the Potency is reported as active: 12.6 µM.
For `N#C/C(=C\Nc1ccccc1O)c1nc2ccccc2o1`, the Potency was inconclusive: 14.1 µM [activator, partial curve].
In the case of `CC(C)(CO)Cc1cc(C(C)(C)C)c(O)c(C(C)(C)C)c1`, the Potency is reported as inconclusive: 3.66 µM [activator, single point].
For `Cc1ccc(N(C)S(=O)(=O)c2nnc(NC(=O)c3ccco3)s2)cc1`, the Potency was inconclusive: 0.891 µM [activator, partial curve].
For `Cc1ccccc1C(=O)O/N=C(\c1ccccc1)c1ccccn1`, the Potency was inconclusive: 15.8 µM [activator, single point].
In the case of `COc1ccccc1CNCc1cc(=O)oc2c(C)c(C)ccc12`, the Potency is reported as inconclusive: 5.62 µM [activator, single point].
For `CCOC(=O)c1c(NCc2ccccc2)n[nH]c1C`, the Potency was inconclusive: 15.8 µM [activator, single point].
In the case of `Cc1ccc2nc(NC(=O)C3CCCN(S(=O)(=O)c4cccc5nsnc45)C3)sc2c1` (centres undefined), the Potency is reported as inconclusive: 11.2 µM [activator, partial curve].
For `N#C/C(=N\Nc1ccc(Cl)cc1)C(=O)c1ccccc1`, the Potency was inconclusive: 11.2 µM [activator, partial curve].
In the case of `COc1ccc(CCN2C(=O)C3C4CC(C5C(C(=O)O)=NOC45)C3C2=O)cc1OC` (centres undefined), the Potency is reported as inconclusive: 3.55 µM [activator, partial curve].
For `COc1ccc(NC(=O)c2ccc(CN3CCN(c4ccccc4)CC3)cc2)cc1`, the Potency was inconclusive: 6.31 µM [activator, single point].
In the case of `CCn1c(C(=O)N2CCc3ccccc3C2)cc2oc3ccccc3c21`, the “growth rescue (activation)” value is reported as inactive: 15.9%.
In the case of `Cc1nn(-c2ccc(N3CCCCC3)nn2)c(C)c1CCC(=O)Nc1cc(F)ccc1F`, the “growth rescue (activation)” value is reported as inactive: 2.38%.
In the case of `CC(=O)/C(C)=N/O`, the Potency is reported as active: 20.6 µM.
For `Oc1ccccc1-c1nc2c3ccccc3c3ccccc3c2[nH]1`, the Potency was inconclusive: 5.62 µM [activator, full curve].
In the case of `CCN(c1cccc(C)c1)S(=O)(=O)c1cc2c3c(c1)CCC(=O)N3CCC2`, the Potency is reported as inconclusive: 10 µM [activator, partial curve].
In the case of `CCCCCn1c(SCCCC)nc2c1c(=O)[nH]c(=O)n2C`, the Potency is reported as inconclusive: 10 µM [activator, partial curve].
With `S=C(NCCc1ccccc1)N1CCN(C23CC4CC(CC(C4)C2)C3)CC1` the Potency was inconclusive: 14.1 µM [activator, single point].
With `C/C(N)=C(/C#N)C(=O)COC(=O)c1cc(-c2cccc3ccccc23)nc2ccccc12` the Potency was inconclusive: 14.1 µM [activator, single point].
With `Cc1cccc(-c2noc(C(C)NC(=O)c3ccco3)n2)c1` (centres undefined) the Potency was inconclusive: 31.6 µM [activator, single point].
In the case of `CCCCOc1ccc(/C=C/C(=O)N(CC)CC(=O)Nc2ccc3c(c2)OCCO3)cc1OC`, the Potency is reported as inconclusive: 15.8 µM [activator, single point].
With `CC(C)CN(C(=O)COC(=O)c1ccc2c(c1)OCO2)c1c(N)n(Cc2ccccc2)c(=O)[nH]c1=O` the “growth rescue (activation)” value was inactive: -0.335%.
With `COc1cccc(-c2nc(N3CCCCC3C)c3ccccc3n2)c1O` (centres undefined) the Potency was active: 12.6 µM.
For `CNC(=O)CC1C(=O)N(Cc2ccccc2)C(=S)N1NC(=O)c1cccc(F)c1` (centres undefined), the “growth rescue (activation)” value was inactive: -2.07%.
With `COc1ccc(C(CNC(=O)COc2ccc(-c3ccccc3)cc2)N2CCOCC2)cc1` (centres undefined) the Potency was inconclusive: 35.5 µM [activator, single point].
In the case of `Cc1cc(-c2ccccc2)nc(Oc2ccc(C(C)(C)C)cc2)c1S(C)(=O)=O`, the Potency is reported as active: 8.91 µM.
For `COc1ccc([C@H]2CC(=O)C=C(c3ccc(C)c([N+](=O)[O-])c3)C2)cc1`, the Potency was inconclusive: 3.55 µM [activator, single point].
With `CN(c1ccccc1)c1nc(N)c([N+](=O)[O-])c(Nc2ccccc2)n1` the Potency was inconclusive: 7.08 µM [activator, partial curve].
For `Cc1ccc(N2CCN(S(=O)(=O)c3ccc4c(c3)oc(=O)n4C)CC2C)cc1` (centres undefined), the “growth rescue (activation)” value was inactive: 0.429%.
With `Cc1noc(C)c1CSc1cc(C)c2ccccc2n1` the “growth rescue (activation)” value was inactive: 1.86%.
With `COc1cccc(-c2cc(C(=O)Nc3cc(OC)c(OC)c(OC)c3)no2)c1` the Potency was inconclusive: 17.8 µM [activator, single point].
With `COc1cc(C(=O)NCC(=O)N/N=C/c2cccc(OC(=O)c3ccco3)c2)cc(OC)c1OC` the Potency was inconclusive: 28.2 µM [activator, single point].
For `O=C1CCCCC1C(Nc1ccc(Br)cc1)c1ccccc1` (centres undefined), the “growth rescue (activation)” value was inactive: 20.7%.
In the case of `Cc1ccc(NC(=O)c2nn(C34CC5CC(CC(C5)C3)C4)cc2[N+](=O)[O-])cc1`, the Potency is reported as inconclusive: 12.6 µM [activator, partial curve].
In the case of `Cc1cccc(Nc2ccccc2C(=O)O)c1C`, the Potency is reported as inconclusive: 11.2 µM [activator, partial curve].
For `CCC(C)n1ncn(-c2ccc(N3CCN(c4ccc(OCC5COC(Cn6cncn6)(c6ccc(Cl)cc6Cl)O5)cc4)CC3)cc2)c1=O` (centres undefined), the Potency was inconclusive: 12.6 µM [activator, partial curve] and the growth rescue (activation) was inconclusive: 45.1% [activator] [at 0.369 µM].
For `O=C(Oc1ccc(O)cc1)C12CC3CC(CC(C3)C1)C2`, the Potency was inconclusive: 22.4 µM [activator, partial curve].
In the case of `COc1cccc(-c2nnc(SCC(=O)N3CCCc4ccccc43)o2)c1`, the Potency is reported as inconclusive: 22.4 µM [activator, partial curve].
In the case of `Cc1ccc(NC(=O)c2cc(S(=O)(=O)N3CCc4ccccc43)cn2C)cc1`, the “growth rescue (activation)” value is reported as inactive: 0.843%.
With `Cc1ccc(S(=O)(=O)N2CCCCC2)cc1NC(=O)c1cnccn1` the “growth rescue (activation)” value was inactive: -4.46%.
For `Cc1cccc(-n2cc(-c3ccccc3)c3c(NN4CCOCC4)ncnc32)c1`, the Potency was inconclusive: 14.1 µM [activator, single point].
